This is one part of the list.

This assay relates to T1, CTL2-GFP (C. trachomatis L2/434/Bu, GFP-expressing).
T1 construct: L2/434/Bu, GFP-expressing
Set-up: species or system HeLa; Intracellular C. trachomatis growth in HeLa cells, bulk GFP fluorescence relative to DMSO. As to conditions: bulk GFP, single well; 28.5 h, 10 µM; inhibitor.
With `Cc1nn(C)c(Oc2ccc3c(c2)CCCC3)c1[N+](=O)[O-]` [CBK000273], the “% of control remaining” value amounted to 126.414%.
Next, `CN(C)S(=O)(=O)c1ccc(C(=O)Nc2ccc3ncn(C)c(=O)c3c2)cc1` [CBK268450]: 93.6987%; `OCc1ccc(-n2ncc(-c3ccc(F)cc3F)n2)cc1` [CBK112731]: 105.392%; `COc1ccc([N+](=O)[O-])cc1NC(=O)N[C@@H]1CC[C@@]2(c3ccc(OC)c(OC)c3)CCN(C)[C@H]2C1` [CBK036449T]: 78.6816%.
Next, `Cc1nn(C)c(S(=O)(=O)N2CCOCC2c2cccc(F)c2)c1C(F)F` (centres unmarked) [CBK304729]: 99.627%; `COc1cccc(CC(=O)NCc2ccccc2OC2CCNC2)c1` (centres unmarked) [CBK024487T]: 108.296%; `Cc1n[nH]c(O)c1C(c1ccc(OC(=O)c2ccccc2)cc1)c1c(C)n[nH]c1O` [CBK265019]: 105.688%.
The figure for `O=c1sn(-c2ccccc2C(F)(F)F)c(=O)n1CC1CC1` [CBK113675] is 134.789%.
Consider `O=C1CC(N(O)c2ccccc2)C(=O)N1c1ccc(F)cc1` (centres unmarked) [CBK288419], for which the “% of control remaining” value is reported as 102.329%.
Turning to `O=C(NNC(=S)NCC1CCCO1)c1cccnc1` (centres unmarked) [CBK266842], the “% of control remaining” value worked out at 143.583%.
`COc1ccc(N(C)C(=O)c2ccc(Cn3nc(NC(=O)Cc4ccc5c(c4)OCO5)c4ccccc43)cc2)cc1` [CBK059530]: the “% of control remaining” value is 122.202%.
With `CCOc1ccc(Cc2nnnn2CC(=O)O)cc1` [CBK286677], the “% of control remaining” value worked out at 147.518%.
The figure for `COc1ccc(CCNCC2OCCCc3cc(OC)c(OC)cc32)cc1OC` (centres unmarked) [CBK012466C] is 130.879%; for `CCCC/C=C/c1cnc2[nH]c(=O)n([C@H](C)c3ccccc3)c2n1` [CBK064182] it is 125.645%; for `CC1CCC(C(N)=O)CN1C(=O)c1csc(COc2ccc(Cl)cc2)n1` (centres unmarked) [CBK304948] it is 95.7425%.
The figure for `O=C1NC2(CCC(=O)N(Cc3ccccc3)CC2)Nc2ccccc21` (centres unmarked) [CBK284439] is 97.8371%.
Next, `COc1ccc(C(=O)NNS(=O)(=O)N(C)C)cc1OC` [CBK267697]: 143.586%; `COc1ccc(C(C)C)cc1S(=O)(=O)NCCc1c(C)[nH]c2c(Cl)cccc12` [CBK266983]: 109.687%.
For the compound `COc1ccc(/C=C/C(C)=C\C(=O)O)c(OC)c1` [CBK262237N], the “% of control remaining” value is recorded as 111.327%.
`CS(=O)(=O)Nc1cccc(C2=NN(S(=O)(=O)c3ccc(Cl)cc3)C(c3ccccc3F)C2)c1` (centres unmarked) [CBK268762]: the “% of control remaining” value is 69.3194%.
Consider `CC(=O)Nc1ccc(S(=O)(=O)N2CCN(Cc3ccc([N+](=O)[O-])cc3)CC2)cc1` [CBK264231G], for which the “% of control remaining” value is reported as 131.484%.
The figure for `COc1ccccc1CN(C)C(=O)CCc1ccc(S(N)(=O)=O)cc1` [CBK304585] is 88.7758%.
The figure for `COc1ccc(C2C(C(=O)c3ccc(Cl)cc3)=C(O)C(=O)N2CCN(C)C)cc1OC` (centres unmarked) [CBK264660] is 131.489%.
The figure for `Clc1ccccc1-c1cn2ccnc2c(NCc2cccnc2)n1` [CBK038039] is 124.11%.
`COc1ccc(S(=O)(=O)Nc2ccc(C)cc2)cc1C(=O)Nc1ccc(C)cc1` [CBK265172]: the “% of control remaining” value is reported as 117.655%.
The figure for `CCc1ccc(-c2csc(NC(=O)CN3C(=O)CCC3=O)n2)cc1` [CBK287347] is 154.759%.
The figure for `O=C(O)CC1CCN(c2ccc(C(F)(F)F)cn2)CC1` [CBK286850] is 136.148%; for `CCN1CCC2(C/C=C/CNC(=O)c3ccccc3OCCN(C)C2=O)CC1` [CBK292061] it is 139.361%; for `CCCCC(=O)N1CC(n2nc(-c3ccccc3)ccc2=O)C1` [CBK284615] it is 190.878%.
The figure for `CC(=O)Nc1ccc(CN2C[C@@H]3OCC(=O)N(C)[C@@H]3C2)cc1` [CBK289240] is 123.464%.
`O=C(NCCc1ccccc1)c1ncoc1-c1cccs1` [CBK283662]: the “% of control remaining” value is recorded as 101.91%.
The figure for `CC(C)(C)NS(=O)(=O)c1cccc2nonc12` [CBK265569] is 112.84%; for `CCc1cc2c(=O)c(-c3nc(C)cs3)c(CCC(=O)O)oc2cc1O` [CBK264838] it is 124.014%; for `CCc1csc(C(=Cc2ccc(OC)cc2)C(N)=O)n1` [CBK001010] it is 126.128%.
Next, `Brc1ccccc1OCCc1ccccc1` [CBK004519]: 128.76%; `Cn1c(/N=C(\C=N\c2cc(=O)n(C)c(=O)n2C)c2ccccc2)cc(=O)n(C)c1=O` [CBK303237]: 145.063%.
The figure for `C=CCSc1nnc(-c2ccccc2NC(=O)CC)c(O)n1` [CBK266411] is 84.6554%; for `CC1CCc2c(sc3ncnc(OCC(=O)N(C)CCC#N)c23)C1` (centres unmarked) [CBK304976] it is 115.12%; for `O=C(CS(=O)(=O)c1cc2c(N3CCNCC3)nccc2s1)c1ccc(N2CCCC2)cc1` [CBK042232C] it is 114.837%.
Take `CC(=O)N1C[C@@H]2CCCCN(CCOc3ccccc3)[C@@H]2C1` [CBK285494]: the “% of control remaining” value is 105.186%.
Take `COCCN(Cc1ccncc1)C(=O)c1cc(C(C)C)n2ncnc2n1` [CBK306983]: the “% of control remaining” value amounted to 121.801%.
Turning to `CC(=O)N1CCC(C(=O)NC(=O)NCc2ccc(F)cc2)CC1` [CBK034834], the “% of control remaining” value is on record as 122.185%.
The figure for `COc1ccccc1NC(=O)CN1CCN(CCC(=O)c2ccc(C(C)C)cc2)CC1` [CBK023925C] is 93.2933%; for `COc1ccc(F)c(CN(CC2CCNCC2)C(=O)Nc2ccccc2C(F)(F)F)c1` [CBK049805] it is 99.9977%.
Next, `CCOC(=O)C1=C(C)N(c2ccc(C(=O)O)cc2)C(=O)NC1c1ccc(OC(F)F)c(OC)c1` (centres unmarked) [CBK297878]: 127.929%.
Next, `CCOC(=O)c1sc2cccc(F)c2c1COC(=O)c1ccc(CNC(N)=O)cc1` [CBK297873]: 138.219%.
Consider `CCN1C(=O)C2(CC(=O)N(CCc3cccc(OC)c3)C2=O)c2cc(C)ccc21` (centres unmarked) [CBK075195], for which the “% of control remaining” value was 85.7854%.
The figure for `O=C(Cc1ccc([N+](=O)[O-])cc1)N/N=C/c1ccc(O)cc1` [CBK262152] is 115.157%; for `Nc1ncc(-c2ccc3c(c2)OCO3)nc1N1CCC(C(=O)O)CC1` [CBK064074] it is 206.595%; for `NS(=O)(=O)c1ccc(NS(=O)(=O)c2ccc(NC(=O)C3CC3)cc2)cc1` [CBK264958] it is 83.9243%.
Next, `Nc1ncncc1-c1ccc(Cl)cc1` [CBK012407]: 107.996%; `CC(/C=C/c1ccc(N(C)C)cc1)=N\NC(=N)SC1CC(=O)N(c2ccc(C(=O)O)cc2)C1=O` (centres unmarked) [CBK262460]: 100%.
Next, `O=C(c1cnccn1)N1C[C@@H]2OCC(=O)N(CC3CC3)[C@@H]2C1` [CBK289681]: 127.471%.
Turning to `O=C(CSCc1ccc([N+](=O)[O-])cc1)Nc1ccc2c(c1)OCO2` [CBK264031], the “% of control remaining” value is 109.388%.
The figure for `Cc1cccnc1C(c1ccccc1)N(C)C(=O)C1CCN(C(=O)NCc2ccccc2)CC1` (centres unmarked) [CBK074119] is 108.946%; for `CCNC(=O)Nc1nn(Cc2ccc(OC)cc2)c2ccccc12` [CBK105837] it is 117.083%; for `O=C(NCc1ccccc1F)c1cccc(CN2C(=O)CSC2=O)c1` [CBK296730] it is 138.701%.
The figure for `Cc1ccc(C)c2c(C)c(C(=O)NCC[S+](C)[O-])[nH]c12` (centres unmarked) [CBK282484] is 135.814%; for `Cn1nccc1C(=O)NC1CCN(CC2(c3ccccc3)CC2)CC1` [CBK285373] it is 107.303%; for `COc1cc(Nc2cccc3c2C(=O)c2ccccc2C3=O)c(OC)cc1C=O` [CBK262677] it is 114.105%.
Next, `CNCC1CCCN1S(=O)(=O)c1ccc(OCc2ncnn2C)cc1` (centres unmarked) [CBK304500]: 129.134%; `CS(=O)(=O)N(CC(=O)NCc1ccccn1)Cc1ccc(Cl)cc1` [CBK267982]: 124.412%; `Cc1cc(Cl)ccc1CNC(=O)c1ccc2[nH]ccc2c1` [CBK149048]: 104.647%.
In the case of `CCCN(CCC)C(=O)c1ccc(NC(=O)CC)cc1` [CBK304391], the “% of control remaining” value was found to be 114.978%.
Next, `CN1[C@@H](CCC(=O)NCc2ccc(F)cc2)CNC(=O)[C@@H]2[C@H]1CCN2C1CCOCC1` [CBK289023]: 148.2%; `C/C(=N\OCC(=O)N(Cc1ccccc1)c1ccccc1C(=O)O)c1cccs1` [CBK077414]: 93.4807%.
Next, `N#Cc1c(Nc2cccc(F)c2)sc2c(O)cc(=O)[nH]c12` [CBK270250]: 140.179%.
Next, `CN1CCN(Cc2c(O)ccc3c(=O)c(-c4ccc(Cl)cc4)coc23)CC1` [CBK263314]: 105.185%.
As for `Cn1c(=O)c2c(nc(N3CCOCC3)n2CC/N=C2/CCCCCN2)n(C)c1=O` [CBK267708C], the “% of control remaining” value came out at 159.415%.
In the case of `CCN(CC)CCNC(=O)c1ccc(Nc2cncc(-c3ccc(O)cc3)n2)c(OC)c1` [CBK122659], the “% of control remaining” value is on record as 51.5567%.
Next, `CC(=O)N1CCN(CCCC(c2ccc(F)cc2)c2ccc(F)cc2)CC1` [CBK024944C]: 134.606%; `O=C(CN1C(=O)COc2ccc(Cl)cc21)Nc1cccc(C(=O)O)c1` [CBK269667]: 145.252%.
`O=c1c2sccc2nc2n1CCN(Cc1ccc(F)c(F)c1)CC2` [CBK282295]: the “% of control remaining” value is 103.294%.
Next, `O=C(O)CCC(=O)NNc1ccccc1[N+](=O)[O-]` [CBK261546]: 118.19%; `CCc1nc2c(OCC(=O)c3ccc(Cl)cc3Cl)cccn2c1N(C)C(=O)C1CC1` [CBK147712]: 113.14%; `CCOCCn1c(CN2CCOCC2)nc2c1c(=O)n(C)c(=O)n2C` [CBK306062]: 70.6624%.
The figure for `COc1ccc(C)cc1S(=O)(=O)n1ccc2c(CNC3CC(C)(C)NC(C)(C)C3)cccc21` [CBK113311T] is 131.282%.

Values taken from article PMC12040169 (PLOS Biology, 2025).
